Results as given in patent publication US20260146099A1 (SELVAX, published 2026).
No constants are given. Whether binding was seen depends on the method and setting. Some results given as binding are weak or reduced against the parent protein; the word gives no strength. Tags and fused reporters may be left off the sequences shown.

T1: Recombinant canine CD40 extracellular domain with human IgG1 Fc domain tag (canine; human) (UniProt Q7YRL5)
T1 sequence (looked up): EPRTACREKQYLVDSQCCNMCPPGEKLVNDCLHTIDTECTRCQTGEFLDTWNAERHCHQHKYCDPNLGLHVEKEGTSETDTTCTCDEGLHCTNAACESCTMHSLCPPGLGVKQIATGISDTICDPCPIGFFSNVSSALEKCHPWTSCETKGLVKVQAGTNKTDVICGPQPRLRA


Key:
[1] = target: T1, Recombinant canine CD40 extracellular domain with human IgG1 Fc domain tag (canine; human); assay: SPR single-cycle kinetics, canine CD40-Fc immobilised; compared with parental mouse antibody SVX-2001
[2] = target: T1, Recombinant canine CD40 extracellular domain with human IgG1 Fc domain tag (canine; human); assay: SPR (Biacore T200), caCD40-Fc immobilised, purified antibody 6.25-50 µg/ml as analyte
[3] = target: T1, Recombinant canine CD40 extracellular domain with human IgG1 Fc domain tag (canine; human); assay: SPR (Biacore T200), caCD40-Fc on the chip, antibody as analyte, 180 s contact
[4] = target: T1, Recombinant canine CD40 extracellular domain with human IgG1 Fc domain tag (canine; human); assay: SPR (Biacore T200), caCD40-Fc immobilised, purified antibody 6.25-50 µg/ml as analyte; response called unusual (possible aggregates or non-specific binding to the chip)
[5] = target: T1, Recombinant canine CD40 extracellular domain with human IgG1 Fc domain tag (canine; human); assay: pair-wise SPR, caCD40-Fc immobilised
[6] = target: T1, Recombinant canine CD40 extracellular domain with human IgG1 Fc domain tag (canine; human); assay: restates the SPR results, canine CD40-Fc immobilised
[7] = target: T1, Recombinant canine CD40 extracellular domain with human IgG1 Fc domain tag (canine; human); assay: SPR, canine CD40-Fc immobilised (kinetics and binding analysis)
[8] = target: T1, Recombinant canine CD40 extracellular domain with human IgG1 Fc domain tag (canine; human); assay: SPR pair-wise binding, caCD40-Fc on the chip, 180 s contact

| binding [1] | binding [2] | binding [3] | Binder | also measured |
| --- | --- | --- | --- | --- |
| binds |  |  | SVX-2001A (antibody, also called chimeric dog IgGA, k antibody derived from StP1.RD1.G9.H5) heavy: QVQLQQSGPELVQPGASVKISCRASGYSFTSYYIHWVKQRPGQGLEWIGWIFPGSGNTKYNEKFRGKATLTADTSSSTAYTQVSSLTSEDSAVYFCARKSPYGNYAMDYWGQGTSVTVSSASTTAPSVFPLAPSCGSTSGSTVALACLVSGYFPEPVTVSWNSGSLTSGVHTFPSVLQSSGLHSLSSMVTVPSSRWPSETFTCNVVHPASNTKVDKPVFNECRCTDTPPCPVPEPLGGPSVLIFPPKPKDILRITRTPEVTCVVLDLGREDPEVQISWFVDGKEVHTAKTQSREQQFNGTYRVVSVLPIEHQDWLTGKEFKCRVNHIDLPSPIERTISKARGRAHKPSVYVLPPSPKELSSSDTVSITCLIKDFYPPDIDVEWQSNGQQEPERKHRMTPPQLDEDGSYFLYSKLSVDKSRWQQGDPFTCAVMHETLQNHYTDLSLSHSPGK light: DILLTQSPAILSVSPGERVSFSCRASQSIGTSIHWYQQRTNGSPRLLIKSASESISGIPSRFSGSGSGTDFTLSINSVESEDIADYYCQQSNSWPYTFGGGTKLEIKRNDAQPAVYLFQPSPDQLHTGSASVVCLLNSFYPKDINVKWKVDGVIQDTGIQESVTEQDKDSTYSLSSTLTMSSTEYLSHELYSCEITHKSLPSTLIKSFQRSECQRVD |  |
| binds |  |  | SVX-2001C (antibody, also called chimeric dog IgGC, k antibody derived from StP1.RD1.G9.H5) heavy: QVQLQQSGPELVQPGASVKISCRASGYSFTSYYIHWVKQRPGQGLEWIGWIFPGSGNTKYNEKFRGKATLTADTSSSTAYTQVSSLTSEDSAVYFCARKSPYGNYAMDYWGQGTSVTVSSASTTAPSVFPLAPSCGSQSGSTVALACLVSGYIPEPVTVSWNSVSLTSGVHTFPSVLQSSGLYSLSSMVTVPSSRWPSETFTCNVAHPATNTKVDKPVAKECECKCNCNNCPCPGCGLLGGPSVFIFPPKPKDILVTARTPTVTCVVVDLDPENPEVQISWFVDSKQVQTANTQPREEQSNGTYRVVSVLPIGHQDWLSGKQFKCKVNNKALPSPIEEIISKTPGQAHQPNVYVLPPSRDEMSKNTVTLTCLVKDFFPPEIDVEWQSNGQQEPESKYRMTPPQLDEDGSYFLYSKLSVDKSRWQRGDTFICAVMHEALHNHYTQISLSHSPGK light: DILLTQSPAILSVSPGERVSFSCRASQSIGTSIHWYQQRTNGSPRLLIKSASESISGIPSRFSGSGSGTDFTLSINSVESEDIADYYCQQSNSWPYTFGGGTKLEIKRNDAQPAVYLFQPSPDQLHTGSASVVCLLNSFYPKDINVKWKVDGVIQDTGIQESVTEQDKDSTYSLSSTLTMSSTEYLSHELYSCEITHKSLPSTLIKSFQRSECQRVD |  |
| binds |  |  | SVX-2001B (antibody, also called chimeric dog IgGB, k antibody derived from StP1.RD1.G9.H5) heavy: QVQLQQSGPELVQPGASVKISCRASGYSFTSYYIHWVKQRPGQGLEWIGWIFPGSGNTKYNEKFRGKATLTADTSSSTAYTQVSSLTSEDSAVYFCARKSPYGNYAMDYWGQGTSVTVSSASTTAPSVFPLAPSCGSTSGSTVALACLVSGYFPEPVTVSWNSGSLTSGVHTFPSVLQSSGLYSLSSMVTVPSSRWPSETFTCNVAHPASKTKVDKPVPKRENGRVPRPPDCPKCPAPEMLGGPSVFIFPPKPKDTLLIARTPEVTCVVVDLDPEDPEVQISWFVDGKQMQTAKTQPREEQFNGTYRVVSVLPIGHQDWLKGKQFTCKVNNKALPSPIERTISKARGQAHQPSVYVLPPSREELSKNTVSLTCLIKDFFPPDIDVEWQSNGQQEPESKYRTTPPQLDEDGSYFLYSKLSVDKSRWQRGDTFICAVMHEALHNHYTQESLSHSPGK light: DILLTQSPAILSVSPGERVSFSCRASQSIGTSIHWYQQRTNGSPRLLIKSASESISGIPSRFSGSGSGTDFTLSINSVESEDIADYYCQQSNSWPYTFGGGTKLEIKRNDAQPAVYLFQPSPDQLHTGSASVVCLLNSFYPKDINVKWKVDGVIQDTGIQESVTEQDKDSTYSLSSTLTMSSTEYLSHELYSCEITHKSLPSTLIKSFQRSECQRVD |  |
| binds |  |  | SVX-2001D (antibody, also called chimeric dog IgGD, k antibody derived from StP1.RD1.G9.H5) heavy: QVQLQQSGPELVQPGASVKISCRASGYSFTSYYIHWVKQRPGQGLEWIGWIFPGSGNTKYNEKFRGKATLTADTSSSTAYTQVSSLTSEDSAVYFCARKSPYGNYAMDYWGQGTSVTVSSASTTAPSVFPLAPSCGSTSGSTVALACLVSGYFPEPVTVSWNSGSLTSGVHTFPSVLQSSGLYSLSSTVTVPSSRWPSETFTCNVVHPASNTKVDKPVPKESTCKCISPCPVPESLGGPSVFIFPPKPKDILRITRTPEITCVVLDLGREDPEVQISWFVDGKEVHTAKTQPREQQFNSTYRVVSVLPIEHQDWLTGKEFKCRVNHIGLPSPIERTISKARGQAHQPSVYVLPPSPKELSSSDTVTLTCLIKDFFPPEIDVEWQSNGQPEPESKYHTTAPQLDEDGSYFLYSKLSVDKSRWQQGDTFTCAVMHEALQNHYTDLSLSHSPGK light: DILLTQSPAILSVSPGERVSFSCRASQSIGTSIHWYQQRTNGSPRLLIKSASESISGIPSRFSGSGSGTDFTLSINSVESEDIADYYCQQSNSWPYTFGGGTKLEIKRNDAQPAVYLFQPSPDQLHTGSASVVCLLNSFYPKDINVKWKVDGVIQDTGIQESVTEQDKDSTYSLSSTLTMSSTEYLSHELYSCEITHKSLPSTLIKSFQRSECQRVD |  |
|  | binds | binds | StP1.RE2.D7b.B5 (antibody, V domains shown) VH: QVQLQQSGPELVKPGASVKISCKASGYSFTSYYIHWVKQSPGQGLEWIGWIFPGSGNTKYNEKFKGKATLTADTSSSTAYMQLSSLTSEDSAVYFCARRGTTRDALDYWGQGTSVTVSS VL: DILLTQSPAILSVSPGERVSFSCRASQSIGTSIHWFQQRTNGSPRVLIKYASQSISGIPSRFSGSGSGTDFTLSINSVESEDIADYYCQQSYTWPFTFGSGTKLAIKR | binding [4]: binds |
|  | binds | binds | StP1.RD1.G9.H5 (antibody, V domains shown, also called purified monoclonal antibody from hybridoma cell-line StP1.RD1.G9.H5) VH: QVQLQQSGPELVQPGASVKISCRASGYSFTSYYIHWVKQRPGQGLEWIGWIFPGSGNTKYNEKFRGKATLTADTSSSTAYTQVSSLTSEDSAVYFCARKSPYGNYAMDYWGQGTSVTVSS VL: DILLTQSPAILSVSPGERVSFSCRASQSIGTSIHWYQQRTNGSPRLLIKSASESISGIPSRFSGSGSGTDFTLSINSVESEDIADYYCQQSNSWPYTFGGGTKLEIKRADAAPTVS | binding [5]: binds; binding [6]: binds; binding [7]: binds; binding [8]: binds |
